Experiment: general procedure: solution-phase peptide synthesis; Boc-Asp-ONSu active ester, DIPEA
Settings: coupling step

Substance | step yield [%]
Boc--[Asp(OBzl)]3 --Arg(NO2)--semicarbazone | 55
Boc--[Asp(OBzl)]4 --Arg(NO2)--semicarbazone | 54

Reference: patent US4593018A (National Research Development Corp., priority 1983, dated 1986)
